# The list shows a part of the results. Shown are side measurements of this screen, not its main read-out; they come without a call. Compounds called inactive in the main read-out are mostly missing here. Words in brackets tell the shape of the fitted curve; partial curves, single points and poor fits give uncertain potencies.
# Assay: qHTS for identification of novel therapeutic agents for treatment of microphthalmiaassociated transcription factor (MiT) renal cell carcinoma (RCC) (AID 1963991)
# Conditions: CellTiter-Glo, 48 h; for z-score: stronger effect = lower value
# Method in brief: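 Curves over 11 concentrations were fitted to CellTiter-Glo luminescence, scaled between empty wells (0%) and DMSO (100%) viability. Cells were UOK109, UOK124 and UOK145 TFE3-fusion RCC lines at 500/well, exposed 48 hours at 37 C.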
# [1] = TFE3-RCC UOK109 viability, measured here: UOK109 Z-AUC
# [2] = TFE3-RCC viability, measured here: UOK124 Z-AUC
# [3] = TFE3-RCC viability, measured here: UOK145 Z-AUC
# [4] = TFE3-RCC viability, measured here: UOK145 cell viability
# [5] = TFE3-RCC viability, measured here: UOK124 cell viability
SMILES,z-score [1],z-score [2],z-score [3],AC50 [4],AC50 [5]
CC(C)N[C@@H]1CCn2c(=O)[nH]c3cccc(c32)[C@@H]1O,-1.07,1.01,1.54,"11.8 µM [falling, partial curve]",–
C[C@]12CC[C@H](O)CC1=CC[C@H]1[C@H]3CCC(=O)[C@@]3(C)CC[C@@H]12,0.365,0.594,3.23,"5.9 µM [falling, partial curve, poor fit]",–
CN1C(=O)COc2c(C(=O)NC3CN4CCC3CC4)cc(Cl)cc21 (centres undefined),0.871,0.724,0.614,–,–
CC(C)CC(N(C)C)C1(c2ccc(Cl)cc2)CCC1 (centres undefined),0.59,0.804,0.227,–,"18.7 µM [falling, single point]"
CC(=Cc1csc(C)n1)[C@@H]1C[C@H]2O[C@]2(C)CCC[C@H](C)[C@@H](O)[C@@H](C)C(=O)C(C)(C)[C@@H](O)CC(=O)O1,-2.63,-0.721,-1.94,"0.264 µM [rising, full curve, poor fit]",–
CCN(CC)C(=O)c1ccc(C2=CC3(CCNCC3)Oc3cccc(O)c32)cc1,1.05,0.688,1.17,–,–
CC(C)(C)[C@]1(O)C[C@@H]2OC(=O)C[C@@]23C(=O)O[C@@H]2OC(=O)[C@H](O)C213 (some centres undefined),0.211,0.532,-2.5,"0.0209 µM [rising, full curve]",–
COc1ccc2c(c1)CN(C)CC2c1ccc(Cl)c(Cl)c1 (centres undefined),0.54,0.199,0.71,–,"26.4 µM [falling, single point]"
C[C@]12CC[C@@H]3c4ccc(OC(=O)N(CCCl)CCCl)cc4CC[C@H]3[C@@H]1CC[C@@H]2OP(=O)(O)O,1.01,1.05,1.31,–,"0.00209 µM [falling, full curve, poor fit]"
C[C@]12Cc3cn[nH]c3C[C@@H]1CC[C@@H]1[C@H]2CC[C@@]2(C)[C@H]1CC[C@]2(C)O,0.565,0.74,2.01,"9.35 µM [falling, partial curve]",–
CC=C(C)C(=O)O[C@H]1C(C)=C2[C@@H]3OC(=O)[C@@](C)(O)[C@@]3(O)[C@@H](OC(=O)CCC)C[C@](C)(OC(C)=O)[C@@H]2[C@@H]1OC(=O)CCCCCCC,-0.756,-2.02,-2.31,"0.296 µM [falling, full curve]","4.69 µM [falling, partial curve]"
CC[C@@H]1[C@@H](C)O[C@@](O)([C@@H](C)[C@H](O)[C@H](C)[C@H]2OC(=O)C=CC=C[C@@H](C)[C@@H]([C@@H](C)[C@@H](O)[C@H](C)[C@@]3(O)C[C@H](O[C@H]4C[C@H](O)[C@H](O)[C@H](C)O4)[C@H](CC)[C@@H](C)O3)OC(=O)C=CC=C[C@@H]2C)C[C@H]1O[C@H]1C[C@H](O)[C@H](O)[C@H](C)O1,–,–,–,"1.05 µM [falling, full curve]","0.526 µM [falling, full curve]"
CNC(=O)N1N=C(c2ccc(N)cc2)c2cc3c(cc2CC1C)OCO3 (centres undefined),-0.308,0.423,0.437,"10.5 µM [falling, partial curve, poor fit]","8.33 µM [falling, partial curve]"
CN1CCN(C(=O)O[C@H]2c3nccnc3C(=O)N2c2ccc(Cl)cn2)CC1,0.151,0.579,-1.72,"2.09 µM [rising, full curve, poor fit]",–
CC(C)[C@H]1C(=O)N[C@H](CO)Cc2c[nH]c3cccc(c23)N1C,0.0277,-0.675,-0.46,–,"0.235 µM [falling, full curve]"
CC=C(C)C(=O)N[C@@H](c1ccccc1)[C@@H](O)C(=O)O[C@H]1C[C@@]2(O)[C@@H](OC(=O)c3ccccc3)[C@@H]3[C@]4(OC(C)=O)CO[C@@H]4C[C@H](O)[C@@]3(C)C(=O)[C@H](OC(C)=O)C(=C1C)C2(C)C,-1.49,-1.36,-2.39,"0.0148 µM [falling, full curve]",–
C[C@@H]1CC[C@@]2(OC1)O[C@H]1C[C@H]3[C@@H]4CC=C5C[C@@H](O[C@@H]6O[C@H](CO)[C@@H](O[C@@H]7O[C@@H](C)[C@H](O)[C@@H](O)[C@@H]7O)[C@H](O)[C@@H]6O[C@@H]6O[C@@H](C)[C@H](O)[C@@H](O)[C@@H]6O)CC[C@]5(C)[C@@H]4CC[C@]3(C)[C@@H]1[C@H]2C,-0.654,-1.35,-0.526,"10.5 µM [falling, partial curve]","5.9 µM [falling, full curve]"
COC[C@H]1OC(=O)c2coc3c2[C@@]1(C)C1=C(C3=O)[C@@H]2CC[C@H](O)[C@@]2(C)C[C@@H]1OC(C)=O,-0.571,0.748,-1.51,"3.32 µM [falling, full curve]","0.526 µM [falling, partial curve]"
COC1=C[C@@H]2[C@@H]3Cc4ccc(OC)c(O)c4[C@]2(CCN3C)CC1=O,0.425,-2.72,-0.156,"9.35 µM [falling, partial curve]",–
O=C1CCC[C@@H]2[C@H]3CCCN4CCC[C@@H](CN12)[C@@H]34,0.0276,-0.128,-0.0618,–,"0.00118 µM [rising, full curve]"

SMILES,z-score [1],z-score [2],z-score [3],AC50 [4],AC50 [5]
CC(=O)Nc1ccc(OC[C@](C)(O)C(=O)Nc2ccc([N+](=O)[O-])c(C(F)(F)F)c2)cc1,0.83,-0.0215,-0.136,–,–
COCC1(CO)C(=O)C2CCN1CC2 (centres undefined),-0.453,-0.0991,-1.01,"2.09 µM [falling, full curve]","1.66 µM [falling, full curve]"
C=C[C@@H]1CN2CCC1C[C@@H]2[C@@H](O)c1ccnc2ccccc12 (some centres undefined),0.566,-0.0691,-0.079,"16.6 µM [falling, partial curve]","20.9 µM [falling, partial curve]"
COC(=O)C1=CCCN(C)C1,0.495,0.569,0.506,"1.87 µM [falling, partial curve, poor fit]",–
C[C@]12CC[C@H]3[C@@H](CCC4=CC(=O)CC[C@@]43C)[C@H]1CC[C@H]2OC(=O)CCC1CCCC1,-0.189,0.833,0.303,–,–
CN[C@@H]1Cc2cccc3[nH]c(=O)n(c23)C1,0.882,0.497,0.456,–,–
C[C@@H]1O[C@@H](O[C@@H]2C=C3CC[C@@H]4[C@@H](CC[C@]5(C)[C@H](c6ccc(=O)oc6)CC[C@@]45O)[C@@]3(C)CC2)[C@H](O)[C@H](O)[C@H]1O,–,–,–,"0.0187 µM [falling, full curve]","0.0264 µM [falling, full curve]"
C[C@]12CC[C@H]3[C@@H](CCC4=CC(=O)CC[C@@]43C)[C@H]1CC[C@H]2O,-0.00683,0.0742,-0.167,–,–
CN1[C@H]2CC(O)C[C@H]1[C@H]1O[C@H]12 (some centres undefined),0.229,-0.106,0.217,"23.5 µM [falling, partial curve]","16.6 µM [falling, partial curve]"
O=[N+]([O-])c1ncc[nH]1,1.23,-0.5,0.725,–,"3.72 µM [falling, full curve, poor fit]"
C[C@]12CCC(=O)C(O)=C1CC[C@@H]1[C@H]3CCC(=O)[C@@]3(C)CC[C@@H]12,0.553,0.741,-2.5,"0.935 µM [falling, partial curve, poor fit]",–
O=C(Nc1ccncc1)C(=O)c1cn(Cc2ccc(Cl)cc2)c2ccccc12,–,–,–,"0.166 µM [falling, full curve]","0.743 µM [falling, full curve]"
CC(=O)N(C)c1cccc(-c2ccnc3c(C(=O)c4cccs4)cnn23)c1,1.62,0.631,1.61,–,–
Cc1ccccc1-n1c(Cn2cnc3c(N)ncnc32)nc2cccc(C)c2c1=O,–,–,–,"0.526 µM [falling, full curve]","1.66 µM [falling, full curve]"
O=C1C=CC[C@@H]2[C@H]3CCCN4CCC[C@@H](CN12)[C@@H]34,0.941,0.412,0.651,"18.7 µM [falling, partial curve]",–
CNC(=O)c1ccc(N2C(=S)N(c3ccc(C#N)c(C(F)(F)F)c3)C(=O)C23CCC3)cc1F,0.111,0.282,-0.017,"14.8 µM [falling, partial curve]",–
C[C@@H]1[C@@H](C(=O)C[C@H]2O[C@@H]3O[C@]4(C)CC[C@@H]5[C@H](C)CC[C@@H]([C@H]2C)[C@@]35OO4)O[C@@H]2O[C@]3(C)CC[C@H]4[C@H](C)CC[C@@H]1[C@@]24OO3,0.267,0.0316,0.607,"26.4 µM [falling, partial curve, poor fit]",–
C=C1C[C@H]2[C@H]3CCC(=O)[C@@]3(C)CC[C@@H]2[C@@]2(C)C=CC(=O)C=C12,0.744,0.643,0.305,"23.5 µM [falling, partial curve, poor fit]",–
C=CCON=C(C[C@H]1O[C@@H]2O[C@]3(C)CC[C@@H]4[C@H](C)CC[C@@H]([C@H]1C)[C@@]24OO3)[C@H]1O[C@@H]2O[C@]3(C)CC[C@H]4[C@H](C)CC[C@@H]([C@@H]1C)[C@@]24OO3,-0.0143,-0.113,-0.0446,"1.66 µM [falling, full curve]","0.469 µM [falling, full curve]"
Cc1c(N)nc([C@H](CC(N)=O)NC[C@@H](N)C(N)=O)nc1C(=O)N[C@H](C(=O)N[C@@H](C)[C@H](O)[C@@H](C)C(=O)N[C@@H](C(=O)NCCc1nc(-c2nc(C(=O)NCCC[S+](C)C)cs2)cs1)[C@@H](C)O)C(O[C@H]1O[C@H](CO)[C@H](O)[C@@H](O)[C@@H]1O[C@H]1O[C@H](CO)[C@@H](O)[C@H](OC(N)=O)[C@H]1O)c1cnc[nH]1 (some centres undefined),-0.763,-0.18,-0.641,"7.43 µM [falling, partial curve]","5.9 µM [falling, partial curve]"

# 2 entries from above, reformatted.
SMILES	z-score [1]	z-score [2]	z-score [3]	AC50 [4]	AC50 [5]
C=C1C[C@H]2[C@H]3CCC(=O)[C@@]3(C)CC[C@@H]2[C@@]2(C)C=CC(=O)C=C12	0.744	0.643	0.305	23.5 µM [falling, partial curve, poor fit]	–
C=CCON=C(C[C@H]1O[C@@H]2O[C@]3(C)CC[C@@H]4[C@H](C)CC[C@@H]([C@H]1C)[C@@]24OO3)[C@H]1O[C@@H]2O[C@]3(C)CC[C@H]4[C@H](C)CC[C@@H]([C@@H]1C)[C@@]24OO3	-0.0143	-0.113	-0.0446	1.66 µM [falling, full curve]	0.469 µM [falling, full curve]

# Reference: PubChem BioAssay (NCATS)
